± gives the standard deviation. Only a part is listed here, and it is no random draw. Many of these values have a large error.
What follows are sequences tested on MIWI (PIWIL1) piRISC loaded with Kctd7 piRNA (30 nt) (assay: pre-steady-state target cleavage rate (min^-1); MIWI and MILI are mouse PIWI proteins and EfPiwi is from a freshwater sponge; tags in brackets are library labels; higher = faster piRNA-guided slicing of the target). Settings: guide: Kctd7 piRNA 5'p-UGUUAAUCUCUCAGAGAAGGUGACAGUGAU; auxiliary factor: 500 nM mouse GTSF1.
Protocol: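 Cleave-'n-Seq: a library of target RNAs (target site embedded in constant flanks, ACAGCATTCCGCGTTAGTGATATCCG... 5' flank; DNA-blocked outside the site) at 0.1 nM was incubated with 1 nM active mouse MILI or MIWI piRISC (synthetic 5'-monophosphorylated piRNA guide) with or without 500 nM mouse GTSF1 at 33 °C for 1 min to 16 h. Uncleaved targets were sequenced and normalised to non-target controls, and the pooled three trials were fitted to a burst-and-steady-state model to give the pre-steady-state cleavage rate (min^-1; k3 is constrained to at most 1e-4). Sequence is the target site only; target names encode pairing extent (gX:gY) and contiguous / 1-mismatch / 2-mismatch / bulge geometry. Fits with R² ≤ 0 are excluded.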

Sequence | pre-steady-state target cleavage rate
UAGUGACACACGUUCUCUGAGAGAUUUUGA | 0.000579 ± 0.012
UUCACUGUCACCUUCUCUCUCAGAUUAAGA | 0.00255 ± 0.0046
UAGUGACUCACCUUCUCUGACAGAUUUUGA | 0.000709 ± 0.01
UUCACUGUCUCGUUCUCUGAGAGAUUAACA | 0.631 ± 0.035
UAGUGACAGACCUUGACUGAGAGAUUAACA | 0.00189 ± 0.0069
UAGUGACACACCUUCUCUGAAGAUUAACA | 0.00202 ± 0.0047
UAGUGACAGACCUUCUCUGAGCAGAUUAACA | 0.00301 ± 0.0034
AUGACUGUCUCCUUCUCUGAGAGAUUAACA | 0.623 ± 0.037
UACACUGUCACCUUCUCUGACUGAUAUUGA | 0.00184 ± 0.0053
UAGUGACACUCCUUCUCUGAGAGAUUUUGA | 0.00309 ± 0.0033
UAGUGACAGUCCUUCUGAGAGAGAUUAUGA | 0.000448 ± 0.012
UAGUGACAGUGGAACUCUGAGGAUUAACA | 0.000126 ± 0.031
UAGUGUGUCACCUUCUCUGUCUGAUUAUGA | 0.0007 ± 0.016
UACACUGUCACCUUCUCUCUCAGAUAUUGA | 0.00177 ± 0.0091
UAGUGACAGUCCUUCUCUGAGGAGAUUAACA | 0.000831 ± 0.0083
UAGUGACAGUCCUUCUCUGAGAGAUAUUCA | 0.00085 ± 0.0052
UAGUGACACACCUUCUCUGAGUCUUUUUGA | 0.000586 ± 0.014
UAGUGACACACCAACUCUGAGAGAUUAACA | 0.0222 ± 0.0043
UAGUGACAGUGGAACUCUGAGAGUUUAACA | 0.000144 ± 0.033
UAGUGACUCACCUUCUGUGAGAGAUAUUGA | 0.0024 ± 0.0053
UAGUGACUCACCUUCUCUGAAGAGAUUAACA | 0.000781 ± 0.0084
UAGACUGUCACCUACUCUGAGAGAUUUUGA | 0.000783 ± 0.0075
UAGUGAGUCACCUUCUGACAGAGAUUAUGA | 0.000888 ± 0.01
UAGUGACAGUCGUACUCUGAGAGAUUAACA | 0.00133 ± 0.0052

Part of the list above, as tab-separated lines:
Sequence	pre-steady-state target cleavage rate
UAGUGACUCACCUUCUCUGAAGAGAUUAACA	0.000781 ± 0.0084
UAGACUGUCACCUACUCUGAGAGAUUUUGA	0.000783 ± 0.0075
UAGUGAGUCACCUUCUGACAGAGAUUAUGA	0.000888 ± 0.01

(next part)

Sequence | pre-steady-state target cleavage rate
UAGUGACACUGCUUCUCUGAGAGAUUUUGA | 0.000179 ± 0.024
UAGUGACAGACCUUCUCAGAGUGAUUAACA | 0.00139 ± 0.011
UACACUCUCACCUUCUCUGAGAGAUUAACA | 0.444 ± 0.031
UAGUGACAGUGCUUGUCUGAGAGAAUAACA | 0.00105 ± 0.0073
UAGUGACAGUGCUUCUCUGAGAGACUAACA | 0.00104 ± 0.006
AUCAGACUCACCUUCUCUGAGAGAUUAACA | 0.726 ± 0.045
UAGUGAGUCACCUUCAGUGAGAGAUAUUGA | 0.00299 ± 0.0045
UUACUGUCACCUUCUCUGAGAGAUUAACA | 0.743 ± 0.041
UAGUGACAGUGGUUCAUCUGAGAGAUUAACA | 0.000223 ± 0.025
UAGUGACAGUGGAAGAGACAGAGAAUAAGA | 0.000467 ± 0.016
UAGUGACAGUCCUUCUCUGAGAGAUAAAGA | 0.000599 ± 0.0093
UAGUGACAGUGGAAAUCUGAGAGAUUAACA | 0.00027 ± 0.013
UAGUGACAGACCUACUCUGAGAGAUUAUGA | 0.000197 ± 0.019
UAGUCUCAGACCUUCUCUGAGAGAUAUUGA | 0.00151 ± 0.0048
UAGUGACAGUCCUUCUCUAGAGAUUAACA | 0.00165 ± 0.0054
UAGACUGUCACCUUCUCUGUCUGAUUAAGA | 0.00102 ± 0.0066
UAGUGACAGUCCUUCUCUGAGUGAUUAAGA | 0.000265 ± 0.024
UAGUGACAGUGCUUCUCUGAGAGGAUUAACA | 0.00187 ± 0.004
UAGACUGUCACCUUCUCUGAGUCAUUAUGA | 0.00082 ± 0.0063
UGCACUGUCACCUUCUCUGAGAGAUUAACA | 0.726 ± 0.039
UACACGUGUCACCUUCUCUGAGAGAUUAACA | 0.563 ± 0.026
UAGUGACAGUGGAAGAGUGAGAGAUUACCA | 0.000104 ± 0.054
UAGUGACAGUGCAUCUCUGAGUGAUUAACA | 0.00018 ± 0.014
UAGACUGUCACCUCCUCUGAGAGAUUAACA | 0.744 ± 0.035

Sequence | pre-steady-state target cleavage rate
UAGACUGUCACCUUCUCUGACAGAUAAACA | 0.00332 ± 0.0035
UAGACUGUCACCUUCUCUGAGUGAUUAAGA | 0.00136 ± 0.0041
UAGUGACAGAGCUUCUCAGAGAGAUUAACA | 0.0013 ± 0.0061
UAGACUGUCAGCUUCUCUGAGAGAUUAACA | 0.753 ± 0.05
UAGUGACAGUGCUUCUCUGAGAGUUUAAGA | 0.000346 ± 0.0082
UAGUGACAGUGGAAGAGACAGAGAUAUUGA [g6:g11:cont:t1A] | 0.000212 ± 0.017
UAGUGACAGACCUUCUCUGAGACAUUAUCA | 0.00173 ± 0.0056
UACACUGUCACCUCCUCUGAGAGAUUAACA | 0.731 ± 0.026
UUCACUGUCACCUUCUCUGAGUGAUUAUGA | 0.00308 ± 0.0045
UAGUGACACACCUUCUCUGACUCAUAUUGA | 0.000131 ± 0.028
AUCUCUGUCACCUUCUCUGAGAGAUUUUGA | 0.191 ± 0.042
UAGUGACAGACCUUCUCUGAGAGUAAUUGA [g8:g21:cont:t1A] | 0.000558 ± 0.013
UAGUGACAGUGGAAGAGACAGGAGAUUAACA | 0.00014 ± 0.044
UACACUGUCACCUUCUCUGUCUGAUUAACA | 0.00434 ± 0.0053
UAGUGACUCACCUUCUCUGAGUGAUUAAGA | 0.00298 ± 0.0039
UAGACUCAGACCUUCUCUGAGAGAUUUUGA | 0.00287 ± 0.0034
UAGUGACAGUGGAAGUCUGAGAGAUUAACA | 0.000243 ± 0.0083
UAGUCUGUCACCUUCUCUGAGUGAUUUACA | 0.0221 ± 0.0058
UAGACUGUCACUCUUCUCUGAGAGAUUAACA | 0.457 ± 0.032
UAGUGACAGUGGUGUCUCUGAGAGAUUAACA | 0.000158 ± 0.021
UAGUGACAGACCUUCUCUGAGACAUAAACA | 0.00185 ± 0.0048
UAGUGACUCACCUUCUCUGACUCAUAUUGA | 0.000153 ± 0.02
UAGACUGUCAGGAUCUCUGAGAGAUUAAGA | 0.000464 ± 0.014
